In patent publication US20260021090A1, “METHODS OF ADM[…]” (Trevi Therapeutics, Inc., priority 2022, published 2026):

Conditions: following oral administration; effect of age

Structure (SMILES): Cl.Oc1ccc2c3c1OC1[C@@H](O)CC[C@@]4(O)[C@@H](C2)N(CC2CCC2)CC[C@]314 (stereo partly drawn) [nalbuphine, 17-(cyclobutylmethyl)-4,5α-epoxymorphinian-3, 6α, 14-triol, hydrochloride]
- Total systemic clearance rate: decreases with age
